Here are results for three molecules from paper PMC12282152.

Results are given in words; binding and its absence hold for the method and conditions named. Binding seen in cells or lysates may run through a third protein. For some of these results: Binding calls can cover weak binding; strength is not graded here. Where a sequence is shown, tags or fusion partners need not be part of it.

For assay [1], the target named is T1, V5-tagged SHFV nsp2 (wild type) (simian hemorrhagic fever virus (SHFV)) (UniProt Q68772).
T1 sequence: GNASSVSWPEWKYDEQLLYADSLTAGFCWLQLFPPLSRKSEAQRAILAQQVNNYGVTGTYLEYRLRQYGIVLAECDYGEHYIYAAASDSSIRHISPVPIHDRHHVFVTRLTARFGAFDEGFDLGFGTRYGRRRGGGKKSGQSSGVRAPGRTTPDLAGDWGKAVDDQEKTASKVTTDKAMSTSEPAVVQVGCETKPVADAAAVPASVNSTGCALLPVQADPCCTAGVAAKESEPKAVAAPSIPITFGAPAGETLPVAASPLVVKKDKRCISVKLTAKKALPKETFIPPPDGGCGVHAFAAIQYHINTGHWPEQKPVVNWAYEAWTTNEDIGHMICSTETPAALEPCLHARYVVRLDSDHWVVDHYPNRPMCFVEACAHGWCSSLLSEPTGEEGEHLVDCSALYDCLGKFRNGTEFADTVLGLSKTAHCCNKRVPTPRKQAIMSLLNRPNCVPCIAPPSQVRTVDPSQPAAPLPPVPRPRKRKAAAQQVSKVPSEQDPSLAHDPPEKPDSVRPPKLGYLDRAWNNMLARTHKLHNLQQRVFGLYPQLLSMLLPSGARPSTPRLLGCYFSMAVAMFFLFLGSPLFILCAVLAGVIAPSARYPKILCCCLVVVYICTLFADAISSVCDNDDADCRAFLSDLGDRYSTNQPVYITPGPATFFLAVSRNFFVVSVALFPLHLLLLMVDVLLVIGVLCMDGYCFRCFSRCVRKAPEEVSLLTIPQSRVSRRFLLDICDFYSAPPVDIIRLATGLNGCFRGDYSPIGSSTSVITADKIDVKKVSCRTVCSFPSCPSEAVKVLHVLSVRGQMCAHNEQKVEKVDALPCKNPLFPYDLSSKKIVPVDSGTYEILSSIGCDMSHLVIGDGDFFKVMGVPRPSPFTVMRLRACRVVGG
The experiment in a line: co-IP; whole-cell lysates of MA104 cells (transfected, or SHFV-infected and transfected) in IP lysis buffer; V5-tagged viral protein precipitated with V5-Trap magnetic agarose, 4°C, 2 h; Western blot with anti-G3BP1 and anti-V5.

Assay [2] addresses T2, V5-tagged SHFV nsp3 (simian hemorrhagic fever virus (SHFV)) (UniProt Q68772).
T2 sequence: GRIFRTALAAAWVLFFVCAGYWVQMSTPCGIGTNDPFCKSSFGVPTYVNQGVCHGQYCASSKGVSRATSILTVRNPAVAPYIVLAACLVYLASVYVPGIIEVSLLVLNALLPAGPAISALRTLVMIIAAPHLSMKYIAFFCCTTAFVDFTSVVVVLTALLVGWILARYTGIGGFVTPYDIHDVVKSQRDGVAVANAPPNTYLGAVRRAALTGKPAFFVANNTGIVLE
The description is as above.

For assay [3], the target named is Ras GTPase-activating protein binding protein 1 (G3BP1) (African green monkey (endogenous in MA104)). The experiment in a line: co-IP; whole-cell lysates of MA104 cells (SHFV-infected, transfected, or transfected and infected) in IP lysis buffer; endogenous G3BP1 precipitated with rabbit anti-G3BP1 antibody and Protein A magnetic beads, 4°C; rabbit IgG control; Western blot with anti-nsp1 or anti-V5 antibodies.

On to “Ras GTPase-activating protein binding protein 1 (G3BP1)”, for which the binding result in assay [1] is listed as “binds”; in assay [2], “no binding”.

B1: V5-tagged SHFV nsp2 (wild type) (protein, UniProt Q68772 351-1236)
chain: GNASSVSWPEWKYDEQLLYADSLTAGFCWLQLFPPLSRKSEAQRAILAQQVNNYGVTGTYLEYRLRQYGIVLAECDYGEHYIYAAASDSSIRHISPVPIHDRHHVFVTRLTARFGAFDEGFDLGFGTRYGRRRGGGKKSGQSSGVRAPGRTTPDLAGDWGKAVDDQEKTASKVTTDKAMSTSEPAVVQVGCETKPVADAAAVPASVNSTGCALLPVQADPCCTAGVAAKESEPKAVAAPSIPITFGAPAGETLPVAASPLVVKKDKRCISVKLTAKKALPKETFIPPPDGGCGVHAFAAIQYHINTGHWPEQKPVVNWAYEAWTTNEDIGHMICSTETPAALEPCLHARYVVRLDSDHWVVDHYPNRPMCFVEACAHGWCSSLLSEPTGEEGEHLVDCSALYDCLGKFRNGTEFADTVLGLSKTAHCCNKRVPTPRKQAIMSLLNRPNCVPCIAPPSQVRTVDPSQPAAPLPPVPRPRKRKAAAQQVSKVPSEQDPSLAHDPPEKPDSVRPPKLGYLDRAWNNMLARTHKLHNLQQRVFGLYPQLLSMLLPSGARPSTPRLLGCYFSMAVAMFFLFLGSPLFILCAVLAGVIAPSARYPKILCCCLVVVYICTLFADAISSVCDNDDADCRAFLSDLGDRYSTNQPVYITPGPATFFLAVSRNFFVVSVALFPLHLLLLMVDVLLVIGVLCMDGYCFRCFSRCVRKAPEEVSLLTIPQSRVSRRFLLDICDFYSAPPVDIIRLATGLNGCFRGDYSPIGSSTSVITADKIDVKKVSCRTVCSFPSCPSEAVKVLHVLSVRGQMCAHNEQKVEKVDALPCKNPLFPYDLSSKKIVPVDSGTYEILSSIGCDMSHLVIGDGDFFKVMGVPRPSPFTVMRLRACRVVGG
In the case of B1, the binding entry in assay [3] was “binds”.

B2: V5-tagged SHFV nsp3 (protein, UniProt Q68772 1237-1463)
chain: GRIFRTALAAAWVLFFVCAGYWVQMSTPCGIGTNDPFCKSSFGVPTYVNQGVCHGQYCASSKGVSRATSILTVRNPAVAPYIVLAACLVYLASVYVPGIIEVSLLVLNALLPAGPAISALRTLVMIIAAPHLSMKYIAFFCCTTAFVDFTSVVVVLTALLVGWILARYTGIGGFVTPYDIHDVVKSQRDGVAVANAPPNTYLGAVRRAALTGKPAFFVANNTGIVLE
As to B2, the binding result in assay [3] is recorded as “no binding”.
